# This is one part of the list. Shown are side measurements of this screen, not its main read-out; they come without a call. Compounds called inactive in the main read-out are mostly missing here. The note in brackets gives the kind of curve behind each potency; many fits are weak.
# Test: qHTS Assay for Lipid Storage Modulators in Drosophila S3 Cells;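 as to cell number change: cells counted by Cell Tracker Red CMTPX staining in the red channel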
# Conditions: BODIPY lipid droplet fluorescence, 18-24 h; for cell number change: measured here: cell count max response, cells fed with added oleic acid
# How it was run: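 Drosophila S3 cells got compounds at several concentrations plus oleic acid (400 uM solution). Laser-scanning cytometry with 488 nm excitation read lipid droplets at 500-530 nm and cells at 575-640 nm. Percent activity was relative to 20 uM Triacsin C.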
# [1] = measured here: lipid fluorescence (Fed channel) AC50, cells fed with added oleic acid
# [2] = measured here: cell number channel AC50, cells fed with added oleic acid
SMILES,cell number change [%],AC50 [1],AC50 [2]
Cc1ccn2cc(CSc3ccccc3N)nc2c1,17.6,"18.4 µM [rising, single point]",–
COc1ccc2nc(Nc3nc(CSc4nnc(C)s4)cc(=O)[nH]3)nc(C)c2c1,–,"0.82 µM [rising, partial curve]",–
CCOc1ccc(NC(=O)Nc2cc(OCC(F)(F)F)cc(OCC(F)(F)F)c2)cc1,–,"2.59 µM [falling, full curve]",–
CCC1CCCCN1C(=O)CSc1nc2c(cnn2-c2ccc(C)cc2)c(=O)[nH]1 (stereo unspecified),32.9,–,"18.4 µM [rising, partial curve, poor fit]"
COc1ccc(C(C[N+](=O)[O-])n2nc(C)cc2C)cc1 (stereo unspecified),–,"5.8 µM [falling, full curve]",–
OC(Cn1ccnc1)c1ccc(Cl)cc1Cl (stereo unspecified),56,"5.17 µM [rising, single point]","5.17 µM [rising, full curve]"
CCCCn1c(N)c(N(CCOC)C(=O)CSCc2ccc(C)cc2)c(=O)[nH]c1=O,48.5,–,"25.9 µM [rising, single point]"
O=S1(=O)N=C(N/N=C/c2cccs2)c2ccccc21,0.702,–,–
COc1cccc(N2C(=O)C3CCCN3C2c2ccc(F)cc2)c1 (stereo unspecified),–,"1.3 µM [rising, full curve, poor fit]",–
Cc1n[nH]c(C)c1CCc1nc2c3ccccc3nc(SCC(=O)Nc3ccccc3F)n2n1,-64.1,"0.13 µM [rising, full curve, poor fit]",–
O=C(COC(=O)/C=C/c1cccc(C(F)(F)F)c1)NC(c1ccccc1)c1ccccc1,-15.1,"0.0651 µM [falling, full curve, poor fit]","0.0731 µM [falling, full curve, poor fit]"
Cc1cccc(C)c1NC(=O)CNCC(=O)N(C)C,–,"5.17 µM [falling, single point]",–
COc1ccc(S(=O)(=O)NCc2ccncc2)cc1OC,-20.1,"2.31 µM [rising, single point]",–
Cc1cc(C(=O)CSc2nncs2)c(C)n1-c1ccc2c(c1)OCO2,–,–,"0.651 µM [rising, single point]"
COc1ccc2c(c1)OC[C@H]1[C@@H]2N2C(=O)CNC(=O)[C@@]2(C)[C@H]1c1ccccc1,-22.6,"2.06 µM [falling, single point]",–
O=C(NCCc1ccccc1F)C1CCCN(c2nc3ccccc3s2)C1 (stereo unspecified),7.26,"23.1 µM [falling, single point]",–
CC(=O)N1CC(=O)N(Cc2ccccc2)/C(=C/c2ccccc2)C1=O,-50,–,"2.59 µM [falling, full curve]"
COc1ccc(CCNC(=O)CN2CCC(C)CC2)cc1OC,51,"6.51 µM [rising, single point]","29.1 µM [rising, single point]"
O=C(c1cnn2c(C(F)F)cc(C3CC3)nc12)N1CCc2ccccc2C1,-5.36,"1.64 µM [rising, partial curve]",–

SMILES,cell number change [%],AC50 [1],AC50 [2]
O=C(CN1CCN(S(=O)(=O)c2ccccc2C(F)(F)F)CC1)NCc1cccs1,-12.4,–,–
COc1ccc(S(=O)(=O)N/N=C\c2ccc3c(c2)OCO3)c(OC)c1,-30.2,"20.6 µM [falling, partial curve]","13 µM [falling, single point]"
Cc1ccc(S(=O)(=O)N2CCN(S(=O)(=O)N3CCOCC3)CC2)cc1C,-8.05,"6.51 µM [falling, single point]",–
COc1ccc(CNC(=O)COc2ccccc2C(=O)c2cnn(-c3ccccc3)c2)cc1OC,-1.42,"7.31 µM [falling, single point]",–
CCN(CC)c1ccc(C2CC(=O)NC3=C2C(=O)CC(C)(C)C3)cc1 (stereo unspecified),1.76,"0.082 µM [falling, full curve, poor fit]",–
COc1ccc(OC)c(-c2nc(C(=O)NCC3CCCO3)cc3c2[nH]c2ccccc23)c1 (stereo unspecified),-30.7,"0.82 µM [rising, single point]","8.2 µM [falling, partial curve, poor fit]"
CCc1ccc2c(c1)C(O)(CC(=O)c1cccs1)C(=O)N2 (stereo unspecified),6.38,"2.91 µM [rising, single point]",–
COc1ccc([N+](=O)[O-])cc1NC(=O)c1ccc(Br)s1,28.4,"0.651 µM [rising, full curve]","1.16 µM [rising, full curve, poor fit]"
COCCNC(=O)C1=C(N)C(C(=O)Nc2ccc(C)c(S(=O)(=O)N3CCCCC3)c2)SC1=Nc1ccc(C)cc1C (stereo unspecified),–,–,"0.184 µM [rising, full curve, poor fit]"
Cc1cc(N2CCC(C)CC2)nc(NCc2ccccc2)n1,-45.3,"4.61 µM [falling, partial curve, poor fit]","20.6 µM [falling, single point]"
COc1cc(C#N)ccc1OC(=O)c1cccc(S(=O)(=O)N2CCN(C)CC2)c1,-99.6,"20.6 µM [falling, single point]","29.1 µM [falling, single point]"
CCC(=O)N1CCc2cc(Br)cc(S(=O)(=O)N3CCC(C(=O)NC(C)(C)C)CC3)c21,-2.86,"6.51 µM [rising, partial curve]",–
O=c1c2cc(NC(=S)N3CCCCC3)ccc2nc2n1CCCCC2,–,–,"1.64 µM [rising, partial curve, poor fit]"
Cc1ccc(C(=O)c2coc3ccc(OCC(=O)O)cc23)cc1,-0.391,–,–
CC(=O)C1=C(C)NC(=O)CC1c1ccccc1Cl (stereo unspecified),-7.62,–,–
COc1ccccc1OCC(=O)N/N=C/c1c(O)ccc2ccccc12,-20.2,"6.51 µM [rising, single point]",–
COc1ccccc1NC(=O)CSc1nnnn1-c1ccc2c(c1)OCO2,188,"1.84 µM [rising, full curve]","1.64 µM [rising, full curve]"
O=C(OC1CCOC1=O)C1CCN(S(=O)(=O)c2ccc(Cl)c(C(F)(F)F)c2)CC1 (stereo unspecified),100,–,"23.1 µM [rising, single point]"

# Filtered by structure, the compounds so far containing a nitro group on carbon.
SMILES,cell number change [%],AC50 [1],AC50 [2]
COc1ccc(C(C[N+](=O)[O-])n2nc(C)cc2C)cc1 (stereo unspecified),–,"5.8 µM [falling, full curve]",–
COc1ccc([N+](=O)[O-])cc1NC(=O)c1ccc(Br)s1,28.4,"0.651 µM [rising, full curve]","1.16 µM [rising, full curve, poor fit]"
